Results on one molecule are retold here after paper PMC7871608.

Protein sequences, listed by entry. Tags and fused reporters are not part of them. Residues count along the entry.
UniProt Q96AY3, residues 27-582: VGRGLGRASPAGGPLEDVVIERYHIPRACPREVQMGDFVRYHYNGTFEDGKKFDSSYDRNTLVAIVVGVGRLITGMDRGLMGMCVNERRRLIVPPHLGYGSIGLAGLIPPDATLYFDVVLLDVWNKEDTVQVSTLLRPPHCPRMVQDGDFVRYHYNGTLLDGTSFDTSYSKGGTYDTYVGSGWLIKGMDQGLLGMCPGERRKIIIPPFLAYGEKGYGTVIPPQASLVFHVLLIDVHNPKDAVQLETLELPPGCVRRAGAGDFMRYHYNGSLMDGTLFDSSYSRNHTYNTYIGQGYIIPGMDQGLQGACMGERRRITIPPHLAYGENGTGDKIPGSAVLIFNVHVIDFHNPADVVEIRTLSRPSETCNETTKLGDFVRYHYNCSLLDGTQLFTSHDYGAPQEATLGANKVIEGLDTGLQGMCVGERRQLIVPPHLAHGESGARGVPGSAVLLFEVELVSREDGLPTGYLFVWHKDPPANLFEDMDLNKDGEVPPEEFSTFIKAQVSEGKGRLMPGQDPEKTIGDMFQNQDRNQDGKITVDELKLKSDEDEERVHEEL

No constants are given. Whether binding was seen depends on the method and setting. Binding seen in cells or lysates may run through a third protein. A yes stands for co-enrichment or nearness to the bait. Other partners may have been found.

In this assay the target is FKBP10 used as bait in the GST-pull down (UniProt Q96AY3). As to the kind of experiment: affinity purification with mass spectrometry; GST-pull down from glioma cells followed by LC-MS/MS; no methods given.

B1: Heat shock protein 47 (protein, UniProt P50454 19-418)
chain: AEVKKPAAAAAPGTAEKLSPKAATLAERSAGLAFSLYQAMAKDQAVENILVSPVVVASSLGLVSLGGKATTASQAKAVLSAEQLRDEEVHAGLGELLRSLSNSTARNVTWKLGSRLYGPSSVSFADDFVRSSKQHYNCEHSKINFRDKRSALQSINEWAAQTTDGKLPEVTKDVERTDGALLVNAMFFKPHWDEKFHHKMVDNRGFMVTRSYTVGVMMMHRTGLYNYYDDEKEKLQIVEMPLAHKLSSLIILMPHHVEPLERLEKLLTKEQLKIWMGKMQKKAVAISLPKGVVEVTHDLQKHLAGLGLTEAIDKNKADLSRMSGKKDLYLASVFHATAFELDTDGNPFDQDIYGREELRSPKLFYADHPFIFLVRDTQSGSLLFIGRLVRPKGDKMRDEL
For the molecule B1, the binding entry is listed as “binds”.
